The source of these data is PMC10726571.

Amino acid sequences for entries named in this document (tags omitted).
UniProt P01106: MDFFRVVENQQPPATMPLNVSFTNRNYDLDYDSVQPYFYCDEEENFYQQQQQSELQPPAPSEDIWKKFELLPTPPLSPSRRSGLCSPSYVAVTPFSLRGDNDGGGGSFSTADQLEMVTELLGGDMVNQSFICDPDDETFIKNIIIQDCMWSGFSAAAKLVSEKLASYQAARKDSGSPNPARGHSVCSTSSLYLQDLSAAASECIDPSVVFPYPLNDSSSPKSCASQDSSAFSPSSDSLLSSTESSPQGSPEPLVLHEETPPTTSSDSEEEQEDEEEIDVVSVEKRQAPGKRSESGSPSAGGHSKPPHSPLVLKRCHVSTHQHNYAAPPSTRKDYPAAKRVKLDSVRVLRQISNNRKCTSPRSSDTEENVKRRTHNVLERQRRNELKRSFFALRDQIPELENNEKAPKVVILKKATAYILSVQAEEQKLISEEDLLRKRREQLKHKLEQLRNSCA
UniProt Q13191: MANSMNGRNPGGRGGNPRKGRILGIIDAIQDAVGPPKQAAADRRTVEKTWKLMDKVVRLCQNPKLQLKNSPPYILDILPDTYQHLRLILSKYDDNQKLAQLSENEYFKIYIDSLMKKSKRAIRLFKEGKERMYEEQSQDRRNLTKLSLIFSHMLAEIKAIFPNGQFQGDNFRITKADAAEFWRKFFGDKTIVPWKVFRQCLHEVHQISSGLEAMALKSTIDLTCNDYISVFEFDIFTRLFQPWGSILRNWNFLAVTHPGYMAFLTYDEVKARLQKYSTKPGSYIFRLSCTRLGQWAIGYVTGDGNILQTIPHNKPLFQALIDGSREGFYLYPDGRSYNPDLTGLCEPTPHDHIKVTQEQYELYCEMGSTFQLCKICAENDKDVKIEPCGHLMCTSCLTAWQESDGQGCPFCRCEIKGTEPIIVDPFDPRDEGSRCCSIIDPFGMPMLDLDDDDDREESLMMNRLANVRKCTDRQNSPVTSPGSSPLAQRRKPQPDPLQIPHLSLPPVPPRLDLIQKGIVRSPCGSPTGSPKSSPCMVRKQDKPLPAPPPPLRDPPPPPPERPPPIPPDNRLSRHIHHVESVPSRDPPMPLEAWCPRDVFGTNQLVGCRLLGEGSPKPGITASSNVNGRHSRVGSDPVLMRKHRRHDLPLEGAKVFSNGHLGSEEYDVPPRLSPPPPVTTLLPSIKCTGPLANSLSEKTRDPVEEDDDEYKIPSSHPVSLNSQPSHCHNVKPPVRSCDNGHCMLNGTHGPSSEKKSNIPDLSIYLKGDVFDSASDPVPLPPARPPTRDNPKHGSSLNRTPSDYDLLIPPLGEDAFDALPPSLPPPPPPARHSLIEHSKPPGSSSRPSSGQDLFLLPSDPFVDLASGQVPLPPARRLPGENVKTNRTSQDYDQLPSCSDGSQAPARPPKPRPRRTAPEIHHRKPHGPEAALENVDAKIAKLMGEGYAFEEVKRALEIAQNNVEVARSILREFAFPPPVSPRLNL

This assay deals with endogenous cMYC (human (endogenous in colon cancer cells, SW480 and LoVo)) (UniProt P01106). Description: co-IP; endogenous proteins of colon cancer cells; lysis in RIPA buffer at 4 °C; anti-cMYC (6 μg, proteintech) and Protein A/G PLUS agarose; Western blot.

No constants are given. Whether binding was seen depends on the method and setting. In cells and extracts the contact can be indirect. Some entries that bind do so weakly or less than the wild type.

As for “endogenous CBLB (from UniProt Q13191 1-982)”, the binding entry was “binds”.
